PubChem BioAssay AID1259308 | NCATS, 2017

Assay: 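Candidate targets for better recombinant protein yield in mammalian cells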 (primary screen)
Cell system: human HEK293 embryonic kidney cells stably expressing firefly luciferase (HEK-CMV-Luc2-Hygro)
Reagent: single siRNA against human genes, 0.8 pmol siRNA per well
Duration: 72 h
Read-out: 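Luciferase light (ONE-Glo) measured on one replicate plate set and viability (CellTiter-Glo) on the other, scaled to a negative control siRNA, with robust z-scores and luciferase per cell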
Direction: total luciferase, z-score: higher = more reporter protein produced
Call rule: 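Active when the median/MAD z-score for overall luciferase is greater than 3; a gene was taken forward for validation with new siRNAs if at least two of its three siRNAs passed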
Calls: active = raised luciferase; inactive = no rise
Here is an unselected part of about 59,000 reagents. Over the whole deposit, about 1,510 (2.6%) are marked active. 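Calls use total luciferase alone and ignore viability, so some active siRNAs may act by altering cell number.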 Reagents against one gene are numbered here. Further read-outs or replicates are left out here. Reagent sequences are not shown.

HPS5 (HPS5 biogenesis of lysosomal organelles complex 2 subunit 2) #1 → total luciferase, z-score: -0.365; Call: inactive
HPS5 (HPS5 biogenesis of lysosomal organelles complex 2 subunit 2) #2 → total luciferase, z-score: 0.438; Call: inactive
HPS5 (HPS5 biogenesis of lysosomal organelles complex 2 subunit 2) #3 → total luciferase, z-score: -0.774; Call: inactive
ZNF181 (zinc finger protein 181) #1 → total luciferase, z-score: 1.33; Call: inactive
ZNF181 (zinc finger protein 181) #2 → total luciferase, z-score: -0.0691; Call: inactive
ZNF181 (zinc finger protein 181) #3 → total luciferase, z-score: -0.779; Call: inactive
CHFR (checkpoint with forkhead and ring finger domains) #1 → total luciferase, z-score: 0.0342; Call: inactive
CHFR (checkpoint with forkhead and ring finger domains) #2 → total luciferase, z-score: -0.0607; Call: inactive
CHFR (checkpoint with forkhead and ring finger domains) #3 → total luciferase, z-score: 2.26; Call: inactive
SANBR (SANT and BTB domain regulator of CSR) #1 → total luciferase, z-score: -0.163; Call: inactive
SANBR (SANT and BTB domain regulator of CSR) #2 → total luciferase, z-score: 0.0076; Call: inactive
SANBR (SANT and BTB domain regulator of CSR) #3 → total luciferase, z-score: 2.29; Call: inactive
FBXL7 (F-box and leucine rich repeat protein 7) #1 → total luciferase, z-score: 0.0587; Call: inactive
FBXL7 (F-box and leucine rich repeat protein 7) #2 → total luciferase, z-score: -0.122; Call: inactive
FBXL7 (F-box and leucine rich repeat protein 7) #3 → total luciferase, z-score: -0.0444; Call: inactive
PLP2 (proteolipid protein 2) #1 → total luciferase, z-score: 0.0975; Call: inactive
PLP2 (proteolipid protein 2) #2 → total luciferase, z-score: 0.635; Call: inactive
PLP2 (proteolipid protein 2) #3 → total luciferase, z-score: 0.231; Call: inactive

2 neighbouring entries already listed:
SANBR (SANT and BTB domain regulator of CSR) #1 → total luciferase, z-score: -0.163; Call: inactive
SANBR (SANT and BTB domain regulator of CSR) #2 → total luciferase, z-score: 0.0076; Call: inactive

More entries:
APOBEC1 (apolipoprotein B mRNA editing enzyme catalytic subunit 1) #1 → total luciferase, z-score: 0.0473; Call: inactive
APOBEC1 (apolipoprotein B mRNA editing enzyme catalytic subunit 1) #2 → total luciferase, z-score: -0.682; Call: inactive
APOBEC1 (apolipoprotein B mRNA editing enzyme catalytic subunit 1) #3 → total luciferase, z-score: 0.298; Call: inactive
MPP3 (MAGUK p55 scaffold protein 3) #1 → total luciferase, z-score: -0.394; Call: inactive
MPP3 (MAGUK p55 scaffold protein 3) #2 → total luciferase, z-score: -0.798; Call: inactive
MPP3 (MAGUK p55 scaffold protein 3) #3 → total luciferase, z-score: -0.967; Call: inactive
SRF (serum response factor) #1 → total luciferase, z-score: 0.207; Call: inactive
SRF (serum response factor) #2 → total luciferase, z-score: -0.549; Call: inactive
SRF (serum response factor) #3 → total luciferase, z-score: -1.5; Call: inactive
MAOB (monoamine oxidase B) #1 → total luciferase, z-score: -0.674; Call: inactive
MAOB (monoamine oxidase B) #2 → total luciferase, z-score: 0.39; Call: inactive
MAOB (monoamine oxidase B) #3 → total luciferase, z-score: -0.498; Call: inactive
MTMR12 (myotubularin related protein 12) #1 → total luciferase, z-score: 0.0592; Call: inactive
MTMR12 (myotubularin related protein 12) #2 → total luciferase, z-score: 0.44; Call: inactive
MTMR12 (myotubularin related protein 12) #3 → total luciferase, z-score: 0.212; Call: inactive
